Measured values reported in publication PMC10949617.
These are yes or no findings as the source states them, for the method shown. Binding can be weak; no strength is given.

Chains of the proteins cited; added tags and fusions are not shown. Lines headed by an entry give the natural chain unless they say otherwise; changes in a name come on top.
UniProt A0A2U1NGE6: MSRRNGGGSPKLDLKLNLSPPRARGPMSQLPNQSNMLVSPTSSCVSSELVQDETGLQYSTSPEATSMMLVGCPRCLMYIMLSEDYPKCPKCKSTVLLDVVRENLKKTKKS
UniProt A0A2U1N775: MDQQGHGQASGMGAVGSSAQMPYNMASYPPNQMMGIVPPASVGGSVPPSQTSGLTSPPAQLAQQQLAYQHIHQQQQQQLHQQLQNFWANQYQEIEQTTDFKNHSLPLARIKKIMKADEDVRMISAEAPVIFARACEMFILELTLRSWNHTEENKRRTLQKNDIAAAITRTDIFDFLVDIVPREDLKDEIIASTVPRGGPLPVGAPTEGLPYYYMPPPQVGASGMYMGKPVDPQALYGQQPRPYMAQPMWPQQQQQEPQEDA

Molecular target: GST-TLR3 (recombinant GST-tagged TrichomeLess Regulator 3) (Artemisia annua)
Test: pull-down; GST pull-down; GST-tagged and His-tagged proteins incubated at 4 °C for 3 h in 300 mM NaCl, 20 mM Tris-HCl, 1% Triton X-100, protease inhibitor cocktail; SDS-PAGE, immunoblot with anti-His and anti-GST; both purified

Row | binding | Substance
1 | binds | His-CycTL (recombinant His-tagged cyclin trichomeless) (from UniProt A0A2U1NGE6)
2 | binds | His-NFY1 (recombinant His-tagged NFY1) (from UniProt A0A2U1N775)
